According to patent publication US20170334991A1:
Results are given in words; binding and its absence hold for the method and conditions named. Some results given as binding are weak or reduced against the parent protein; the word gives no strength.

Amino acid sequences for entries named in this document (tags omitted).
UniProt O14493: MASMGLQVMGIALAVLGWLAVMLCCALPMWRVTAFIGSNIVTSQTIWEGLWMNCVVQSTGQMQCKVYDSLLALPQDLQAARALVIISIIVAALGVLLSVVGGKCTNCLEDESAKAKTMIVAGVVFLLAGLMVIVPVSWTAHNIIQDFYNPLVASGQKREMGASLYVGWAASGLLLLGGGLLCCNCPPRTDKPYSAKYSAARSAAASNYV
UniProt O95484: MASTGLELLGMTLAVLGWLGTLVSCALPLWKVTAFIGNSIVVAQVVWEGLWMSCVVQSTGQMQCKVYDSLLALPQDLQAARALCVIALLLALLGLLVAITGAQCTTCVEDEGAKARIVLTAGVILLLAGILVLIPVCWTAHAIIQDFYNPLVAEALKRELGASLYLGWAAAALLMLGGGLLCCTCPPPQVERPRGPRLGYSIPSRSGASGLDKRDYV
UniProt O35054: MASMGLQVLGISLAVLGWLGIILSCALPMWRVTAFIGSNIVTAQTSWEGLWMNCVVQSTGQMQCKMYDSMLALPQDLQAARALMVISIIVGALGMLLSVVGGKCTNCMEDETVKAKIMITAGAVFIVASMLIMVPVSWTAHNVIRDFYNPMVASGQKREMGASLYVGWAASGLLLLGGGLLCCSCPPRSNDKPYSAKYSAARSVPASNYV

T1: human CLDN6 (human) (UniProt P56747)
T1 sequence (looked up): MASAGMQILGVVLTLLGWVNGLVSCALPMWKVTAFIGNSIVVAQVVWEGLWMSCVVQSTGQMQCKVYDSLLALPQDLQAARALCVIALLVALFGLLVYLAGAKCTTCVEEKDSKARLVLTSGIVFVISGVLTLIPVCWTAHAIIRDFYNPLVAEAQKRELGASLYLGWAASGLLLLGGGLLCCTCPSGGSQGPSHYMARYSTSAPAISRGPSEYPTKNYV

T2: rat CLDN4 (rat) (UniProt Q5XIT8)
T2 sequence: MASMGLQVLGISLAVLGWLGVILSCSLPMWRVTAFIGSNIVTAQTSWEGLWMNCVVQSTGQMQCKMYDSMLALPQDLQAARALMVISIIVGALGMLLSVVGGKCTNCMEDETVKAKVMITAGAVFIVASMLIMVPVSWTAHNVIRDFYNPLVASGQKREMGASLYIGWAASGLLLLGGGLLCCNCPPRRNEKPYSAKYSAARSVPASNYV


Tests used:
human CLDN4 (human) [1] = molecular target: human CLDN4 (human) (UniProt O14493); assay: flow cytometry, 10 µg/ml antibody on transduced HEK-293T cells
human CLDN6 (human) [2] = molecular target: T1, human CLDN6 (human); assay: as above
human CLDN9 (human) [3] = molecular target: human CLDN9 (human) (UniProt O95484); assay: as above
human CLDN6 (human) [4] = molecular target: T1, human CLDN6 (human); assay: flow cytometry on HEK-293T cells overexpressing human CLDN6 (FIG. 4A legend)
human CLDN9 (human) [5] = molecular target: human CLDN9 (human) (UniProt O95484); assay: flow cytometry on HEK-293T cells overexpressing human CLDN9 (FIG. 4A legend)
human CLDN4 (human) [6] = molecular target: human CLDN4 (human) (UniProt O14493); assay: flow cytometry on HEK-293T cells overexpressing human CLDN4 (FIG. 4A legend)
rat CLDN4 (rat) = molecular target: T2, rat CLDN4 (rat); assay: flow cytometry (data not shown)
mouse CLDN4 (mouse) = mouse CLDN4 (mouse) (UniProt O35054); assay: flow cytometry (data not shown)
human CLDN6 (human) [7] = molecular target: T1, human CLDN6 (human); assay: flow cytometry on HEK-293T cells overexpressing human CLDN6 (293T-CLDN6), 1 microgram of antibody per sample, AlexaFluor-647 anti-mouse IgG Fc secondary antibody
human CLDN6 (human) [8] = molecular target: T1, human CLDN6 (human); assay: flow cytometry, 1 microgram SC27.22 against isotype control on HEK-293T cells overexpressing human CLDN6
human CLDN6 (human) [9] = molecular target: T1, human CLDN6 (human); assay: flow cytometry on dissociated OV78 ovarian PDX tumor cells with endogenous claudins, 1 microgram of antibody per sample. The axis is labelled CLDN6, but SC27.22 also binds CLDN4 and CLDN9, so other claudins may add to the signal

binding (human CLDN4 (human) [1]) | binding (human CLDN6 (human) [2]) | binding (human CLDN9 (human) [3]) | binding (human CLDN6 (human) [4]) | binding (human CLDN9 (human) [5]) | binding (human CLDN4 (human) [6]) | binding (rat CLDN4 (rat)) | binding (mouse CLDN4 (mouse)) | binding (human CLDN6 (human) [7]) | binding (human CLDN6 (human) [8]) | binding (human CLDN6 (human) [9]) | Binder
binds | binds | binds | binds | binds | binds | binds | binds | – | – | – | SC27.1 mouse anti-CLDN monoclonal antibody (antibody, V domains shown) VH: EVQLQESRPELVKPGASVKISCKTSGYTFTEYTLHWVKQSHGKSLEWIGGINPNNGDTIYNQKFKGKATLTVDKSSSTAYMELRSLTSEYSAVYYCARRAITVYAMDYWGQGTSVTVSS VL: DIQMTQSSSSFSVSLGDRVTITCKASEDIYNRLAWYQQKPGNAPRLLISGATSLETGTPSRFSGSGSGKDYTLSITSLRTEDAATYYCQQYWSTPLTFGTGTKLELK
binds | binds | binds | binds | binds | binds | binds | binds | binds | binds | binds | SC27.22 mouse anti-CLDN monoclonal antibody (antibody, V domains shown) VH: QVQLQQPGAELVRPGASVKLSCKASGYTFTSYWMNWVKQRPGQGLEWIAMIHPSDSEIRLNQKFKDKATLTVDRSSSTAYMQLSSPTSEDSAVYYCARIDSYYGYLFYFDYWGQGTTLTVSS VL: DIVLTQSPASLAVSLGQRATISCRASQTVSTSSYSYMHWFQQKPGQPPKLLIKFASNVESGVPARFSGSGSGTDFTLNIHPVEEEDISTYYCQHSWEIPWTFGGGTKLEIK
